Reference: article PMC12261760
No constants are given. Whether binding was seen depends on the method and setting. In cells and extracts the contact can be indirect. Some entries that bind do so weakly or less than the wild type.

By UniProt entry, the sequences of proteins in these tests, tags left out. Where a name states a change or a piece, a line headed by the entry shows the natural chain unless it says otherwise.
UniProt P51532: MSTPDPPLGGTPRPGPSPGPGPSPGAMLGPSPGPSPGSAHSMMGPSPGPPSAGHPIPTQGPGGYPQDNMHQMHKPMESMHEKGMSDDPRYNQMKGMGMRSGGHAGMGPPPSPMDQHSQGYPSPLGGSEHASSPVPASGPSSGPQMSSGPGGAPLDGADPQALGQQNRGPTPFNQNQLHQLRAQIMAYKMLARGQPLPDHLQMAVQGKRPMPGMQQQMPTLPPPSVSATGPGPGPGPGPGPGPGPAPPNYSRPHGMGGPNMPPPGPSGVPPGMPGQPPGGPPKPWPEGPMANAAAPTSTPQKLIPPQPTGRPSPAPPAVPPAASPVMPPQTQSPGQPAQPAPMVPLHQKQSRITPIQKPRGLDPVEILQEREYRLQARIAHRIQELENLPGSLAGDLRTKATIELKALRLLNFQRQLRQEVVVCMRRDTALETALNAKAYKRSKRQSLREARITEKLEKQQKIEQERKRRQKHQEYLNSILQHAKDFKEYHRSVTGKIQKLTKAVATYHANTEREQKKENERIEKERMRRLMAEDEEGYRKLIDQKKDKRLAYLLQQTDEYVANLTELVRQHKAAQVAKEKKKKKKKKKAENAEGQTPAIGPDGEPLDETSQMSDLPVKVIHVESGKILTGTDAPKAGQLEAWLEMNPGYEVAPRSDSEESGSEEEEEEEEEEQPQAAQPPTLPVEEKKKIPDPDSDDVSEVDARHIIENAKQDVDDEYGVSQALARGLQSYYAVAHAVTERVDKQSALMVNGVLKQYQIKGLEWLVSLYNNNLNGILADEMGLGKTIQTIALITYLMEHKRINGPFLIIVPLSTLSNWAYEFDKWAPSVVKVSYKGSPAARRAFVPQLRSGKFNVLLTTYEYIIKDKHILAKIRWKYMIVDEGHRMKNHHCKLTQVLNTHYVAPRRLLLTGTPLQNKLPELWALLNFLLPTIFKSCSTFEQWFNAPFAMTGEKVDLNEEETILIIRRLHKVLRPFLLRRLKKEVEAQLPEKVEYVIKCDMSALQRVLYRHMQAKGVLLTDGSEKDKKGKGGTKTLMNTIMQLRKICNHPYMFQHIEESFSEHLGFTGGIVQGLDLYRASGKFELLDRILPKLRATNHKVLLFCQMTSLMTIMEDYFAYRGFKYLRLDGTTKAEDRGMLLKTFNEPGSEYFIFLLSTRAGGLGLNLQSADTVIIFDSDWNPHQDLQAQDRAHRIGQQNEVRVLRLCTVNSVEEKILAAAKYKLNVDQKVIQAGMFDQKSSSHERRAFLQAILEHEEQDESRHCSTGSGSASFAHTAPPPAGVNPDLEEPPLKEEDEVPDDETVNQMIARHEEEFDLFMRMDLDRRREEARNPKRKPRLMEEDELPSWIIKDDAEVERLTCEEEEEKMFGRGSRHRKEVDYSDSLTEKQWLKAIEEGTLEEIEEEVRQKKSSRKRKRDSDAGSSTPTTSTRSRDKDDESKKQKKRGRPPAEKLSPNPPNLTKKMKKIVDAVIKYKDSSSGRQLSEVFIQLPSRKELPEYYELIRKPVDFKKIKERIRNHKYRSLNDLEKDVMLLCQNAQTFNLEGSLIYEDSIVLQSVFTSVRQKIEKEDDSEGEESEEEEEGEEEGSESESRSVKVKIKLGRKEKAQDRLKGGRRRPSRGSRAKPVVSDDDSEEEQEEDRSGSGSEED
UniProt Q09472: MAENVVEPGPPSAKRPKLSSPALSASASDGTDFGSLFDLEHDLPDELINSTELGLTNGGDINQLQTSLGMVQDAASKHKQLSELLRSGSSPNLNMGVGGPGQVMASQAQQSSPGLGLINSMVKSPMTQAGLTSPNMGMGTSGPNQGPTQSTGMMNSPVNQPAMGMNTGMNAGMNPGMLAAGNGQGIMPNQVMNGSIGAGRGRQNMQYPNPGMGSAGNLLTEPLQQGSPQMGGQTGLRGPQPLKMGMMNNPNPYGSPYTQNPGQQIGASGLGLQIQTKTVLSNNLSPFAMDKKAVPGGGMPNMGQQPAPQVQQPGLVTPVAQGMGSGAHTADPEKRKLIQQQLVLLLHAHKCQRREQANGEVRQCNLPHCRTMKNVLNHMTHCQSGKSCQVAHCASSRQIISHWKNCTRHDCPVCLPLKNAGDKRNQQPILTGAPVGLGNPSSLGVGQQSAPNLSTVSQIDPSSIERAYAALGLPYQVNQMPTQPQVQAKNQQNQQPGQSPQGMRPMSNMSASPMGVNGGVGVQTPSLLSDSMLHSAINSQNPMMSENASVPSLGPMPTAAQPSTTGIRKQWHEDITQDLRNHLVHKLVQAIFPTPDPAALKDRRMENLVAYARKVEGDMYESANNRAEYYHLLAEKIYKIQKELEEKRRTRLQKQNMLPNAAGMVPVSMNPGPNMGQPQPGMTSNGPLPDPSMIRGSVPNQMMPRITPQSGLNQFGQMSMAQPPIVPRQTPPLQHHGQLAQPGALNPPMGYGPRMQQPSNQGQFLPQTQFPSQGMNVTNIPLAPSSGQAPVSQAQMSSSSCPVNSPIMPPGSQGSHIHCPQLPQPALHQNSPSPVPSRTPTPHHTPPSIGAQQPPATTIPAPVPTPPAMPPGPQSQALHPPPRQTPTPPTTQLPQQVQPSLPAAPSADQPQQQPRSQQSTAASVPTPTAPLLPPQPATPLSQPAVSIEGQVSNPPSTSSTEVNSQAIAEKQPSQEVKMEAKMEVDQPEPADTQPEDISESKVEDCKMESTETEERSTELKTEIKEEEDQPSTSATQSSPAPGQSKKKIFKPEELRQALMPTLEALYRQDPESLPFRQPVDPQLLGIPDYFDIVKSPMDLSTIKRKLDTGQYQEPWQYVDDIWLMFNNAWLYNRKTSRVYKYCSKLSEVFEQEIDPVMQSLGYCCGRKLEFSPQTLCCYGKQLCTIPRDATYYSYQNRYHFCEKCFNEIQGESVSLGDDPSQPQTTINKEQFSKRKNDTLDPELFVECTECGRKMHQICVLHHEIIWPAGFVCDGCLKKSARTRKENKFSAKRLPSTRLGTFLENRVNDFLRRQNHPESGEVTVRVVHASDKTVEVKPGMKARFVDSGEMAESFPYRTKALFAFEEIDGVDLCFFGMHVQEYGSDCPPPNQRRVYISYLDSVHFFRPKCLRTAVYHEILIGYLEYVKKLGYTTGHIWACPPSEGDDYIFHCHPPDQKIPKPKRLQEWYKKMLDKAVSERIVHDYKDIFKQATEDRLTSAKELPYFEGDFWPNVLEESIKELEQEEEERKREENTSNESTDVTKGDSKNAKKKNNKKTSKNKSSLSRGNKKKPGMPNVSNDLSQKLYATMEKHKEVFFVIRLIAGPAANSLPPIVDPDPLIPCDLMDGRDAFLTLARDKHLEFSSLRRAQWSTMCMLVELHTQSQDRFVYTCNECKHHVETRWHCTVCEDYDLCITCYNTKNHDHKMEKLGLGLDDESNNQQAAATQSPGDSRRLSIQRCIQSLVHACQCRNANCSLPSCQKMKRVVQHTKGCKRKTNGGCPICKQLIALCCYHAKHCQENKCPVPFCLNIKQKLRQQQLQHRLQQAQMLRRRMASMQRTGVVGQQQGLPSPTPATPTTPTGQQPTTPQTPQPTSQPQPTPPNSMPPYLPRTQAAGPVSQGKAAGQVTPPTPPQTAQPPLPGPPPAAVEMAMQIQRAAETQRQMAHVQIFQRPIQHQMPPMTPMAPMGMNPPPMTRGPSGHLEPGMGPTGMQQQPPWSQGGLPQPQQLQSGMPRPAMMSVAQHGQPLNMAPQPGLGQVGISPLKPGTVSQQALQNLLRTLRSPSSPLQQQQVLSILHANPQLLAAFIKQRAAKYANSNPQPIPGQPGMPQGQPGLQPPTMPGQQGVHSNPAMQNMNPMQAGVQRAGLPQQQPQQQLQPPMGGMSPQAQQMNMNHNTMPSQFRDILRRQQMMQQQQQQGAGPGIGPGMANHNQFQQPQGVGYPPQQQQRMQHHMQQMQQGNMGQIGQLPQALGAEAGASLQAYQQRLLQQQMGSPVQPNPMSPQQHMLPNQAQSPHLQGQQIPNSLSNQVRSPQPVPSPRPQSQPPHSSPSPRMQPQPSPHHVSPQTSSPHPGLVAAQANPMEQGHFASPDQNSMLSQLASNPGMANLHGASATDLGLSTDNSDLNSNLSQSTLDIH
UniProt O15379: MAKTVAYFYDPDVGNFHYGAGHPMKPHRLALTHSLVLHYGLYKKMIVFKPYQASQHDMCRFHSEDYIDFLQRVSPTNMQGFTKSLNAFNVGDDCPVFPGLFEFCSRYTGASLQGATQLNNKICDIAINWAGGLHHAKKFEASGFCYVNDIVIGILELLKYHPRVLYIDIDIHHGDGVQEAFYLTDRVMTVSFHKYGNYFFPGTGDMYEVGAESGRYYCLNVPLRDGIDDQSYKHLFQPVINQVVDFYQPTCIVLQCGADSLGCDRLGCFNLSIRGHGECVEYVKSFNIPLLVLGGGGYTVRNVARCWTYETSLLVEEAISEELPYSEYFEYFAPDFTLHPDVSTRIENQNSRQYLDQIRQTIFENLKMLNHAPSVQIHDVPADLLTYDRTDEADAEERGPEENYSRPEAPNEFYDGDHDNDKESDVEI

B1: ETS transcription factor ERG (protein, UniProt P11308 1-479)
chain: MASTIKEALSVVSEDQSLFECAYGTPHLAKTEMTASSSSDYGQTSKMSPRVPQQDWLSQPPARVTIKMECNPSQVNGSRNSPDECSVAKGGKMVGSPDTVGMNYGSYMEEKHMPPPNMTTNERRVIVPADPTLWSTDHVRQWLEWAVKEYGLPDVNILLFQNIDGKELCKMTKDDFQRLTPSYNADILLSHLHYLRETPLPHLTSDDVDKALQNSPRLMHARNTGGAAFIFPNTSVYPEATQRITTRPDLPYEPPRRSAWTGHGHPTPQSKAAQPSPSTVPKTEDQRPQLDPYQILGPTSSRLANPGSGQIQLWQFLLELLSDSSNSSCITWEGTNGEFKMTDPDEVARRWGERKSKPNMNYDKLSRALRYYYDKNIMTKVHGKRYAYKFDFHGIAQALQPHPPESSLYKYPSDLPYMGSYHAHPQKMNFVAPHPPALPVTSSSFFAAPNPYWNSPTGGIYPNTRLPTSHMPSHLGTYY

Key:
[1] = biological target: Brahma-related gene 1 (BRG1) (human) (UniProt P51532); assay: co-IP; immunoprecipitation with a BRG1 antibody or a P300 antibody, partners detected in the precipitate; cells and buffer not stated
[2] = biological target: E1A Binding Protein P300 (human (endogenous in CRC cells, cell line not stated)) (UniProt Q09472); assay: as above

binding [1] | binding [2] | Molecule
binds |  | E1A Binding Protein P300 (from UniProt Q09472 1-2414)
binds |  | Histone deacetylase 3 (from UniProt O15379 1-428)
 | binds | B1
